These are yes or no findings as the source states them, for the method shown. Binding seen in cells or lysates may run through a third protein. Some results given as binding are weak or reduced against the parent protein; the word gives no strength. For some of these results: Sequences can lack the tags named with a protein. Values belong to the molecule of their own block, whether it stands above or below them.
Legend:
MYC-tagged UCHL1 (human) = MYC-tagged UCHL1 (human) (UniProt P09936); assay: co-IP; HEK-293T cells co-transfected with tagged plasmids (with or without TAZ overexpression); lysates immunoprecipitated (anti-Flag) at 4°C overnight, protein A/G beads 4 h, washed 5 times with PBS, western blot
[1] = biological target: ubiquitin C-terminal hydrolase 1 (UCHL1), endogenous in mouse BMMs (mouse (endogenous in BMMs)) (UniProt Q9R0P9); assay: co-IP; endogenous proteins in mouse BMM lysates (wild-type, f/f or LysM-Cre UCHL1 cKO); immunoprecipitation with anti-UCHL1, anti-TAZ or control IgG at 4°C overnight, protein A/G beads 4 h, washed 5 times with PBS, western blot
FLAG-tagged TAZ (human) = FLAG-tagged TAZ (human) (UniProt Q9GZV5); assay: co-IP; HEK-293T cells co-transfected with tagged plasmids (with or without TAZ overexpression); lysates immunoprecipitated (anti-Flag) at 4°C overnight, protein A/G beads 4 h, washed 5 times with PBS, western blot
[2] = biological target: WW domain-containing transcription regulator protein 1 (WWTR1, TAZ), endogenous in mouse BMMs (mouse (endogenous in BMMs)) (UniProt Q9EPK5); assay: co-IP; endogenous proteins in mouse BMM lysates (wild-type, f/f or LysM-Cre UCHL1 cKO); immunoprecipitation with anti-UCHL1, anti-TAZ or control IgG at 4°C overnight, protein A/G beads 4 h, washed 5 times with PBS, western blot

Amino acid sequences for entries named in this document (tags omitted). A change or cut given only in a name is not applied to a line headed by its entry.
UniProt P09936: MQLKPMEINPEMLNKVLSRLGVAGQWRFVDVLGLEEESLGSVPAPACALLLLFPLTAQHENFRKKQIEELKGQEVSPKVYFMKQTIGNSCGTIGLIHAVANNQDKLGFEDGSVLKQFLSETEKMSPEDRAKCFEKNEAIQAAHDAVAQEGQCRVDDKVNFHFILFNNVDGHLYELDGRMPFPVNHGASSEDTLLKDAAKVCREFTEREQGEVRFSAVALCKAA
UniProt Q9R0P9: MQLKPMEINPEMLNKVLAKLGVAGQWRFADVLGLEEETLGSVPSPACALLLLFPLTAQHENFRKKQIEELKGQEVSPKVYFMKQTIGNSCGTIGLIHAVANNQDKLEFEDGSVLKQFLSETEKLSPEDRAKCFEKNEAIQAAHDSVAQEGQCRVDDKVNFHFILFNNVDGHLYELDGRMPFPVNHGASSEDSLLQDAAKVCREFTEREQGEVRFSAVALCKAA
UniProt Q9GZV5: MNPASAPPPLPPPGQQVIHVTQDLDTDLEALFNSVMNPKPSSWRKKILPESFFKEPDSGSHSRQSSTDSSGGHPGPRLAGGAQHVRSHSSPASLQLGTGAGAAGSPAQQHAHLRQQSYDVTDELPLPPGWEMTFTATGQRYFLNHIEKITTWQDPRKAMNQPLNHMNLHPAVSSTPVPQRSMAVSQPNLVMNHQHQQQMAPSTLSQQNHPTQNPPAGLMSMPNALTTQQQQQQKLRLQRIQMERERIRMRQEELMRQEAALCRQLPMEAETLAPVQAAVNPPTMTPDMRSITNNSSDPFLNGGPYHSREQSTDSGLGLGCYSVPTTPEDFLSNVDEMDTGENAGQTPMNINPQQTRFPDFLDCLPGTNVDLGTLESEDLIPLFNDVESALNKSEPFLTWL
UniProt Q9EPK5: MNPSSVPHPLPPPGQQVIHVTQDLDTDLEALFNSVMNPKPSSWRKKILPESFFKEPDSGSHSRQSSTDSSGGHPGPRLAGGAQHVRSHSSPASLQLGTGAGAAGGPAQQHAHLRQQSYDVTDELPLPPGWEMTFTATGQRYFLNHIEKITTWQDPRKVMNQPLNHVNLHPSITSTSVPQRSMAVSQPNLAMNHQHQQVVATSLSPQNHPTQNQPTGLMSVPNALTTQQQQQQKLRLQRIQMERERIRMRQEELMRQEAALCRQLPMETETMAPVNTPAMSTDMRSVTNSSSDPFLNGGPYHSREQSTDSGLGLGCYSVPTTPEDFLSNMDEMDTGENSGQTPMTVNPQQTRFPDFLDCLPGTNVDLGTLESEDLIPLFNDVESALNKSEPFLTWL

Molecule: Segment 2 of TAZ (amino acids 101-200) (from UniProt Q9GZV5 101-200) (domain or fragment)
binding (MYC-tagged UCHL1 (human)): binds

B2: nuclear factor of activated T cells 1 (NFATC1), endogenous in mouse BMMs (protein, UniProt O88942 1-717)
chain: MPNTSFPVPSKFPLGPPAAVCGSGETLRPAPPSGGTMKAAEEEHYSYVSPSVTSTLPLPTAHSALPAACHDLQTSTPGISAVPSANHPPSYGGAVDSGPSGYFLSSGNTRPNGAPTLESPRIEITSYLGLHHGSGQFFHDVEVEDVLPSCKRSPSTATLHLPSLEAYRDPSCLSPASSLSSRSCNSEASSYESNYSYPYASPQTSPWQSPCVSPKTTDPEEGFPRSLGACHLLGSPRHSPSTSPRASITEESWLGARGSRPTSPCNKRKYSLNGRQPSCSPHHSPTPSPHGSPRVSVTEDTWLGNTTQYTSSAIVAAINALTTDSTLDLGDGVPIKSRKTALEHAPSVALKVEPAGEDLGTTPPTSDFPPEEYTFQHLRKGAFCEQYLSVPQASYQWAKPKSLSPTSYMSPSLPALDWQLPSHSGPYELRIEVQPKSHHRAHYETEGSRGAVKASAGGHPIVQLHGYLENEPLTLQLFIGTADDRLLRPHAFYQVHRITGKTVSTTSHEIILSNTKVLEIPLLPENNMRAIIDCAGILKLRNSDIELRKGETDIGRKNTRVRLVFRVHIPQPNGRTLSLQVASNPIECSQRSAQELPLVEKQSTDSYPVIGGKKMVLSGHNFLQDSKVIFVEKAPDGHHVWEMEAKTDRDLCKPNSLVVEIPPFRNQRITSPAQVSFYVCNGKRKRSQYQRFTYLPANGNSVFLTLSSESELRGGFY
binding [2]: binds

Continued, values first:

binding [1]: binds
Molecule: WW domain-containing transcription regulator protein 1 (WWTR1, TAZ), endogenous in mouse BMMs (from UniProt Q9EPK5 1-395)

binding (FLAG-tagged TAZ (human)): binds
B1: full-length Myc-NFATC1 (protein, UniProt O95644 1-943)
chain: MPSTSFPVPSKFPLGPAAAVFGRGETLGPAPRAGGTMKSAEEEHYGYASSNVSPALPLPTAHSTLPAPCHNLQTSTPGIIPPADHPSGYGAALDGGPAGYFLSSGHTRPDGAPALESPRIEITSCLGLYHNNNQFFHDVEVEDVLPSSKRSPSTATLSLPSLEAYRDPSCLSPASSLSSRSCNSEASSYESNYSYPYASPQTSPWQSPCVSPKTTDPEEGFPRGLGACTLLGSPRHSPSTSPRASVTEESWLGARSSRPASPCNKRKYSLNGRQPPYSPHHSPTPSPHGSPRVSVTDDSWLGNTTQYTSSAIVAAINALTTDSSLDLGDGVPVKSRKTTLEQPPSVALKVEPVGEDLGSPPPPADFAPEDYSSFQHIRKGGFCDQYLAVPQHPYQWAKPKPLSPTSYMSPTLPALDWQLPSHSGPYELRIEVQPKSHHRAHYETEGSRGAVKASAGGHPIVQLHGYLENEPLMLQLFIGTADDRLLRPHAFYQVHRITGKTVSTTSHEAILSNTKVLEIPLLPENSMRAVIDCAGILKLRNSDIELRKGETDIGRKNTRVRLVFRVHVPQPSGRTLSLQVASNPIECSQRSAQELPLVEKQSTDSYPVVGGKKMVLSGHNFLQDSKVIFVEKAPDGHHVWEMEAKTDRDLCKPNSLVVEIPPFRNQRITSPVHVSFYVCNGKRKRSQYQRFTYLPANVPIIKTEPTDDYEPAPTCGPVSQGLSPLPRPYYSQQLAMPPDPSSCLVAGFPPCPQRSTLMPAAPGVSPKLHDLSPAAYTKGVASPGHCHLGLPQPAGEAPAVQDVPRPVATHPGSPGQPPPALLPQQVSAPPSSSCPPGLEHSLCPSSPSPPLPPATQEPTCLQPCSPACPPATGRPQHLPSTVRRDESPTAGPRLLPEVHEDGSPNLAPIPVTVKREPEELDQLYLDDVNEIIRNDLSSTSTHS
